Results as given in US20080260858A1, “Universal Procoagulant” (The Board of Trustees of the University of Illnois, priority 2005, published 2008).
The name of at least one read-out is uncertain.

Sequences of proteins named here, by UniProt entry; tags and fusion partners are left off. Residues count along the entry.
UniProt P08709, 61-212 limits assumed: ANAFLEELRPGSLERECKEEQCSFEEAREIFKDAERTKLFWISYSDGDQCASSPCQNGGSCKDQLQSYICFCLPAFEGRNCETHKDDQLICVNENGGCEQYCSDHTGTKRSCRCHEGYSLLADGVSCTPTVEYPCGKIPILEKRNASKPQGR
UniProt P08709, 213-466 limits assumed: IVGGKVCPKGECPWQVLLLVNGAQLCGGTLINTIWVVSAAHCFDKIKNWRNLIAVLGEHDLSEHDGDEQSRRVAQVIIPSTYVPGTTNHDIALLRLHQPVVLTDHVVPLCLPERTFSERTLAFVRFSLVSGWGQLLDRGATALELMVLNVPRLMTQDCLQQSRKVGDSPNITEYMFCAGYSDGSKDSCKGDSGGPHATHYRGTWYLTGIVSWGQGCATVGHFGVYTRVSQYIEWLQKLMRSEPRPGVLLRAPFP

Biological target: T1, X activation by VIIa (Homo sapiens, UniProt P08709)
T1 construct: VIIa or factor VIIa means coagulation factor VIIa (active enzyme); purchased American Diagnostica
Assay: Factor X activation using liposomes
Type: biochemical
Conditions: 500 pM VIIa, 4 pM TF, 50 μM total lipid
Experimental: A stringent test of TF:VIIa function is its ability to support the activation of its natural protein substrate, X. This requires that TF be incorporated into a suitable phospholipid membrane (i.e., one containing negatively charged phospholipids). […] The ability of various forms of TF to support the activation of X was compared under equivalent concentrations of enzyme (500 pM VIIa), cofactor (4 pM TF) and liposomes (50 μM total lipid).
Factor X activation using liposomes. […] At varying times, 20 μl aliquots were removed into a 96-well plate containing 100 μl Stop Buffer 1 (40 mM Mes-NaOH pH 5.8, 12 mM EDTA, 50 mM NaCl, 0.25% Triton X-100, 0.1% NaN3, 0.012% Antifoam C) at 4° C. After warming the stopped reactions to room temperature, Xa was detected by adding 60 μl of 1.5 mM Spectrozyme Xa in HBSAC plus 0.6 M Tricine-NaOH, pH 8.4 and quantifying change in A405. Amounts of Xa generated were determined by comparison to a standard curve with purified Xa.

B1: membTF: recombinant membrane-bound tissue factor (protein, UniProt P13726 1-295, looked up)
chain: METPAWPRVPRPETAVARTLLLGWVFAQVAGASGTTNTVAAYNLTWKSTNFKTILEWEPKPVNQVYTVQISTKSGDWKSKCFYTTDTECDLTDEIVKDVKQTYLARVFSYPAGNVESTGSAGEPLYENSPEFTPYLETNLGQPTIQSFEQVGTKVNVTVEDERTLVRRNNTFLSLRDVFGKDLIYTLYYWKSSSSGKKTAKTNTNEFLIDVDKGENYCFSVQAVIPSRTVNRKSTDSPVECMGQEKGEFREIFYIIGAVVFVVIILVIILAISLHKCRKAGVGQSWKENSPLNVS
modifications: full-length
X activation kcat/Km: 6.02e+07 ± 6.35e+06 M⁻¹ s⁻¹
